Experimental data from PMC12815460, “A high-resolution analysis of arrestin2 interactions responsible for CCR5 endocytosis” (eLife, 2026).
Results are given in words; binding and its absence hold for the method and conditions named.

Chains of the proteins cited; added tags and fusions are not shown. Residues count along the entry.
UniProt Q00610, residues 1-364: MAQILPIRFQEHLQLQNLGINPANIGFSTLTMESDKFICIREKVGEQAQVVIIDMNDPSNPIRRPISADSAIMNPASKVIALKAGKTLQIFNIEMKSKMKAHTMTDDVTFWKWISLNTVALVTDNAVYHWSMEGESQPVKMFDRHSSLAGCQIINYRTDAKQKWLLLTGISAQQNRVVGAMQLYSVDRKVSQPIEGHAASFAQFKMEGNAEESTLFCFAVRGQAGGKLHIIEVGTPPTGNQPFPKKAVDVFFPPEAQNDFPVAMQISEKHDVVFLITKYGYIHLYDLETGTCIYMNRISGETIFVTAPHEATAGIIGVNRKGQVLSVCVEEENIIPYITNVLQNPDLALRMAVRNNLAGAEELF

Biological target: clathrin-N (clathrin heavy chain 1 N-terminal domain, residues 1–364) (UniProt Q00610)
Test: NMR titration; 50 μM 15N,2H-labelled clathrin-N observed (1H-15N HSQC-TROSY, 900 MHz), unlabelled arrestin2 construct added up to equimolar, no phosphopeptide; 20 mM HEPES, 150 mM NaCl, pH 7.4, 303 K; both purified

binding: no binding (tested: equimolar, 50 μM)
B1: arrestin2^ΔCBL (arrestin2^1-418 with loop K357–D385 replaced by visual arrestin residues E365–N376) (protein)
chain: MGDKGTRVFKKASPNGKLTVYLGKRDFVDHIDLVDPVDGVVLVDPEYLKERRVYVTLTCAFRYGREDLDVLGLTFRKDLFVANVQSFPPAPEDKKPLTRLQERLIKKLGEHAYPFTFEIPPNLPCSVTLQPGPEDTGKACGVDYEVKAFLAENLEEKIHKRNSVRLVIRKVQYAPERPGPQPTAETTRQFLMSDKPLHLEASLDKEIYYHGEPISVNVHVTNNTNKTVKKIKISVRQYADIVLFNTAQYKVPVAMEEADDTVAPSSTFSKVYTLTPFLANNREKRGLALDGKLKHEDTNLASSTLLREGANREILGIIVSYKVKVKLVVSRGGLLGDLASSDVAVELPFTLMHPKPEDPAKESYQDANIVFEDFARQRLKGMKDDKEEEEDGTGSPQLNNR
